{"sequences": {"note": "By UniProt entry, the sequences of proteins in these tests, tags left out. Where a name states a change or a piece, a line headed by the entry shows the natural chain unless it says otherwise.", "UniProt P51450": "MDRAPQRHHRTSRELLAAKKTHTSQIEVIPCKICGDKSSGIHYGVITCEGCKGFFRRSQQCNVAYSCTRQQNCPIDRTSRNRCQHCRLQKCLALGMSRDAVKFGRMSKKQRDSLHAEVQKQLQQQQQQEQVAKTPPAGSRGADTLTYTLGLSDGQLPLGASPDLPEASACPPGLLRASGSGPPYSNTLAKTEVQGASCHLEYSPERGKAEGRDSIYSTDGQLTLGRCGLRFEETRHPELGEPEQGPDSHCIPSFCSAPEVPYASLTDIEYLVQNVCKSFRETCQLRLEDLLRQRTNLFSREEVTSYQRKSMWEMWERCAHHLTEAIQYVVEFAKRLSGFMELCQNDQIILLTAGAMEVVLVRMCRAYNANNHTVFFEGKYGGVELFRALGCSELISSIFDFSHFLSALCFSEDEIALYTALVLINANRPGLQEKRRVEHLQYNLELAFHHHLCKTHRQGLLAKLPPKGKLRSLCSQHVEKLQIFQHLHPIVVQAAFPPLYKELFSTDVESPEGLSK"}, "source": "PubChem BioAssay AID2551", "about": "(National Center for Advancing Translational Sciences (NCATS), 2010)", "note": "Where “and” joins values, the source holds several entries; their conditions need not be identical. Identical values can stand only once. In all, about 310,000 compounds went through this assay and about 17,000 (5.5%) were called active. The inconclusive results got no clear call from the source; some entries with a clear call stand among them for comparison. Calls follow the shape of the dose curve; as a rule, active = well fitted inhibition curve with a large enough effect; inconclusive = small, poorly fitted or top-dose-only effect, or effect the other way; inactive = no such curve, though single readings can be large or run the other way. Potencies beside an inconclusive call are fits to weak or partial responses and may not hold up. % is scaled to controls: 0 for no effect and ±100 for the full control effect; potency is read from the fitted curve at half-maximal effect.", "data": [{"molecular_target": "Nuclear receptor ROR-gamma (Mus musculus) (UniProt P51450)", "test": "qHTS for inhibitors of ROR gamma transcriptional activity; also: nearly all actives have a fitted effect of over 60% in size", "settings": "Drosophila S2 Gal4-RORgamma UAS-luciferase reporter, 20 h; activity change, negative = inhibition: at 53.6 µM (top of the series)", "outline": "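Read-out: Photinus luciferase luminescence; inhibitors lower reporter signal. Insect Schneider cells with Gal4-ROR gamma fusion under metallothionein promoter, UAS reporter; 700 uM final copper sulfate induction, 20 hr, ambient temperature.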", "values": [{"smiles": "O=C(O)c1cccc(N2C(=O)c3cc([N+](=O)[O-])cc4cc([N+](=O)[O-])cc(c34)C2=O)c1", "Potency": "inconclusive: 15.8 µM [inhibitor, single point]"}, {"smiles": "COc1ccc(-c2nn(CC(=O)NCCc3ccccc3)c(=S)n2C)cc1", "Potency": "inconclusive: 17.8 µM [activator, partial curve]"}, {"smiles": "O=C(CCCOc1ccc(Cl)cc1Cl)Nc1cccnc1", "Potency": "inconclusive: 17.8 µM [activator, single point]"}, {"smiles": "Cc1ccc(NC(=O)C2COc3ccccc3O2)nc1", "note": "(stereo unspecified)", "Potency": "inconclusive: 5.62 µM [activator, partial curve]"}, {"smiles": "CC(=O)Nc1cccc(C(=O)/C=C/c2ccc(F)cc2)c1", "Potency": "active: 12.6 µM"}, {"smiles": "COc1ccc(N(C)S(=O)(=O)c2ccc3c(c2)CC(C)N3C(=O)C2CC2)c(OC)c1", "note": "(stereo unspecified)", "Potency": "inconclusive: 12.6 µM [activator, single point]"}, {"smiles": "CCNC(=O)NC(=O)C(C)OC(=O)CCCc1nc2ccccc2s1", "note": "(stereo unspecified)", "Potency": "inactive"}, {"smiles": "O=[N+]([O-])c1ccc(N2CCc3ccccc3C2)cc1", "Potency": "inconclusive: 0.0891 µM [activator, full curve, poor fit]"}, {"smiles": "CCOC(=O)/C(=C/c1ccc(OC(=O)c2ccccc2)cc1)C(C)=O", "Potency": "inconclusive: 35.5 µM [inhibitor, single point]"}, {"smiles": "CC(C)n1cnc2c(NCc3ccccc3)nc(NCc3ccccc3)nc21", "Potency": "inconclusive: 35.5 µM [inhibitor, single point]"}, {"smiles": "CCOC(=O)C(NC(=O)c1ccccc1)(Nc1nnc(C)s1)C(F)(F)F", "note": "(stereo unspecified)", "Potency": "inconclusive: 10 µM [inhibitor, partial curve, poor fit]"}, {"smiles": "O=C(Oc1ccc(N(C(=O)c2ccncc2)S(=O)(=O)c2ccc(F)cc2)cc1)c1ccncc1", "Potency": "inactive"}, {"smiles": "CC(=O)c1cnc(Nc2nc(C)c3cc(C)c(C)cc3n2)nc1C", "Potency": "active: 3.55 µM"}, {"smiles": "Cn1c(=O)n(C)c2cc(NS(=O)(=O)c3ccc(C(C)(C)C)cc3)ccc21", "Potency": "inconclusive: 2.24 µM [activator, partial curve]"}, {"smiles": "OCCN1CCN(CC(O)COc2ccc(C34CC5CC(CC(C5)C3)C4)cc2)CC1", "note": "(stereo unspecified)", "Potency": "inconclusive: 22.4 µM [inhibitor, single point]"}, {"smiles": "COc1cc([N+](=O)[O-])cc(/C=N/NC(=O)c2ccc(NC(=O)c3ccc(C)cc3)cc2)c1O", "Potency": "inconclusive: 31.6 µM [inhibitor, partial curve, poor fit]"}, {"smiles": "CCNC(=O)N1CCOCC1", "Potency": "inactive"}, {"smiles": "O=c1c2cc(Br)ccc2nc(-c2ccccc2)n1O", "Potency": "inconclusive: 12.6 µM [inhibitor, single point]"}, {"smiles": "Cc1cc(C=C2C(=O)c3ccccc3C2=O)c(C)n1C", "Potency": "inconclusive: 5.62 µM [activator, single point]"}, {"smiles": "CCc1nc(Nc2ccccc2OC)c2oc3ccccc3c2n1", "Potency": "inconclusive: 17.8 µM [inhibitor, single point]"}, {"smiles": "FC(F)(F)c1ccc(Cl)c(NC(=S)NC2CC2)c1", "Potency": "active: 15.8 µM"}, {"smiles": "Cc1c(CCOC(=O)CC23CC4CC(CC(C4)C2)C3)sc[n+]1CC(=O)c1ccccc1", "Potency": "inconclusive: 35.5 µM [inhibitor, single point]"}, {"smiles": "COc1cccc(NC(=O)CN2CCN(c3ccccc3F)CC2)c1", "Potency": "inactive"}, {"smiles": "COc1cccc(C2=Nn3c(nnc3-c3ccccc3OC)SC2)c1", "Potency": "inconclusive: 35.5 µM [inhibitor, single point]"}, {"smiles": "COc1ccc(OC)c(/C=C2\\SC(N3CCCC(C)C3)=NC2=O)c1", "note": "(stereo unspecified)", "Potency": "inactive"}, {"smiles": "S=C(Nc1cccc(Cl)c1)N1CCN(c2ccccn2)CC1", "Potency": "active: 11.2 µM"}, {"smiles": "Cc1cc(Nc2ccccc2F)n2nc(C)nc2n1", "Potency": "inactive"}, {"smiles": "CCNc1ccc(C(=O)Nc2ccc3nc(C)sc3c2)cc1[N+](=O)[O-]", "Potency": "inconclusive: 2.51 µM [activator, full curve, poor fit]"}, {"smiles": "C=CCN(CC(=O)NCC1CCCO1)C(=O)CCC(=O)Nc1cc(C)on1", "note": "(stereo unspecified)", "Potency": "inconclusive: 2.82 µM [inhibitor, single point]"}, {"smiles": "Cc1oc(-c2ccccc2)cc1C(N)=O", "Potency": "inconclusive: 0.1 µM [activator, single point]"}, {"smiles": "CCC1Cc2c(nc(N)c3c(N)nc(N4CCCCC4)c(C#N)c23)O1", "note": "(stereo unspecified)", "Potency": "inactive"}, {"smiles": "Cn1c(=O)[nH]c(=O)c2c1nc(CN1CCOCC1)n2CCCc1ccccc1", "Potency": "inconclusive: 0.631 µM [inhibitor, single point]"}, {"smiles": "O=C(CCl)N1c2ccccc2CCc2ccccc21", "Potency": "active: 11.2 µM"}, {"smiles": "Cc1cc2cc(CNC(=O)c3ccc(C)c([N+](=O)[O-])c3)ccc2[nH]1", "Potency": "inconclusive: 10 µM [activator, partial curve]"}, {"smiles": "Cc1cccc(NC(=O)COc2ccc(/C=C\\c3[nH]c(=O)[nH]c(=O)c3[N+](=O)[O-])cc2)c1", "Potency": "inactive"}, {"smiles": "COc1cc2c(cc1OC)C(C)N(C(=S)Nc1ccccc1)CC2", "note": "(stereo unspecified)", "Potency": "inconclusive: 35.5 µM [inhibitor, single point]"}, {"smiles": "COc1ccc(COCCN2CCN(S(=O)(=O)c3ccc(C)cc3)CCC2=O)cc1", "Potency": "inconclusive: 35.5 µM [activator, single point]"}, {"smiles": "Cc1ccc(C(=O)N(Nc2nc3ccccc3s2)C(=O)c2ccc(C)cc2)cc1", "Potency": "active: 8.91 µM"}, {"smiles": "Fc1ccc(NC(=S)Nc2ccccc2Cl)cc1", "Potency": "inconclusive: 35.5 µM [inhibitor, single point]"}, {"smiles": "COCCn1c(SCC(=O)Nc2ccc(C(C)=O)cc2)nc2c([nH]c3ccccc32)c1=O", "Potency": "inconclusive: 7.94 µM [inhibitor, partial curve]"}, {"smiles": "O=C(c1ccco1)N1CCC2(CCCN(c3ccncc3)C2)CC1", "Potency": "inactive"}, {"smiles": "CCOc1ccc(-n2ccc(=O)c(C(=O)Nc3ccc(S(=O)(=O)Nc4nccs4)cc3)n2)cc1", "Potency": "inconclusive: 11.2 µM [activator, single point]"}, {"smiles": "C/C=C/Cn1c(SCc2ccc(Cl)cc2)nc2c1c(=O)[nH]c(=O)n2C", "Potency": "inactive"}, {"smiles": "CCOCc1c(C(=O)Nc2ccc(OC)nc2)oc2ccccc12", "Potency": "inactive"}, {"smiles": "CC(CCc1ccccc1)NC(=O)CNC(=S)N(Cc1cccs1)C1CCCC1", "note": "(stereo unspecified)", "Potency": "inconclusive: 11.2 µM [inhibitor, single point]"}, {"smiles": "COc1ccc(NC(=O)CN2CCN(c3nc(-c4cccc(OC)c4)cs3)CC2)cc1", "Potency": "inconclusive: 3.55 µM [activator, partial curve, poor fit]"}, {"smiles": "O=C(CCl)Nc1cccc2ncccc12", "Potency": "active: 17.8 µM"}, {"smiles": "CC(C)C[C@@H](CC(=O)N[C@@H](CCC(=O)O)CC(=O)O)NC(=O)[C@@H]1CNCC[C@H]1NC(=O)C[C@H](CCCN)NC(=O)C[C@H](Cc1c[nH]c2ccccc12)NC(=O)[C@@H]1CCCC[C@H]1N", "Potency": "inactive"}, {"smiles": "COc1cc(CNCCCN2CCOCC2)c(Br)cc1OC(C)C", "Potency": "inconclusive: 0.631 µM [inhibitor, single point]"}, {"smiles": "O=C(Oc1cccc(Oc2ccccc2)c1)N1CCOCC1", "Potency": "inconclusive: 35.5 µM [activator, single point]"}, {"smiles": "CCCOc1ccc(Cc2c(COCC)[nH]c(=S)[nH]c2=O)cc1", "Potency": "inactive"}, {"smiles": "COc1ccccc1Oc1ccc2c(c1)C(=O)N(c1cccc3ncccc13)C2=O", "Potency": "inconclusive: 35.5 µM [inhibitor, single point]"}, {"smiles": "COC(=O)C1=C(C)N(Cc2ccccc2)[C@]23O[C@](C(=O)OC)(C(=O)N2C1c1ccccc1)C1C(=O)N(c2ccccc2)C(=O)C13", "note": "(stereo partly specified)", "activity change, negative = inhibition": "inactive: 2.78% [at 10 µM] and inactive: -7.02% [at 10 µM]"}, {"smiles": "CCc1ccc(NC(=O)CC2C(=O)NCCN2C(=O)c2ccccc2OC)cc1", "note": "(stereo unspecified)", "Potency": "inactive"}, {"smiles": "CC(=O)Nc1ccc(S(=O)(=O)NC(C)c2ccccc2)cc1", "note": "(stereo unspecified)", "Potency": "inconclusive: 20 µM [activator, single point]"}, {"smiles": "O=C(CN(Cc1ccc(F)cc1)C(=O)CNS(=O)(=O)c1ccccc1)NCC1CCCO1", "note": "(stereo unspecified)", "Potency": "inactive"}, {"smiles": "N/C(COc1cccc(Cl)c1)=N\\NS(=O)(=O)c1ccccc1", "Potency": "inconclusive: 35.5 µM [inhibitor, single point]"}, {"smiles": "CCN(C(=O)CSc1nc2ccccc2n1CCc1ccccc1)C1CCS(=O)(=O)C1", "note": "(stereo unspecified)", "Potency": "inconclusive: 22.4 µM [inhibitor, single point]"}, {"smiles": "O=C(O)c1ccc(N2C(=O)CC(SC(=Nc3ccccc3)Nc3ccccc3)C2=O)cc1", "note": "(stereo unspecified)", "Potency": "inactive"}, {"smiles": "O=C(O)CSCC(=O)Nc1ccc(C2CCCCC2)cc1", "Potency": "active: 2.24 µM"}, {"smiles": "C/C(=N\\NC(=O)c1cc(C(C)C)[nH]n1)c1ccncc1", "Potency": "inactive"}, {"smiles": "CCc1ccc(NC(=O)c2cnc(N3CCN(c4ccccn4)CC3)c3ccccc23)cc1", "Potency": "inactive"}, {"smiles": "O=C(CSc1nc(-c2ccccc2)ns1)N1CCOCC1", "Potency": "inactive"}, {"smiles": "Cc1ccc(S(=O)(=O)Cn2nnnc2C(C(C)C)N2CCC(C(N)=O)CC2)cc1", "note": "(stereo unspecified)", "Potency": "inactive"}, {"smiles": "CCC(=O)Nc1ccccc1C(=O)OCc1ccc(C(=O)c2ccccc2)cc1", "Potency": "inconclusive: 10 µM [activator, partial curve]"}, {"smiles": "Cn1c(N)c(C(=O)COC(=O)C2(c3ccccc3F)CCCC2)c(=O)n(C)c1=O", "Potency": "inconclusive: 15.8 µM [activator, single point]"}, {"smiles": "Cc1cc(Nc2ccc(C)c(Br)c2)n2nc(C)nc2n1", "Potency": "inconclusive: 2 µM [inhibitor, full curve]"}, {"smiles": "Cc1ccc(N/N=C(\\C#N)C(N)=S)c(C)c1", "Potency": "inconclusive: 25.1 µM [inhibitor, single point]"}, {"smiles": "CC1=NN(c2ccccc2)C(=O)C1C(=O)c1ccc(Cl)cc1", "note": "(stereo unspecified)", "Potency": "active: 11.2 µM"}, {"smiles": "Cc1cc([N+](=O)[O-])ccc1N1C(=O)c2ccc(C(=O)Nc3ccccc3C(=O)O)cc2C1=O", "Potency": "inactive"}, {"smiles": "Cc1noc(C(F)(F)F)c1C(=O)NNC(=O)c1cccc(C(F)(F)F)c1", "Potency": "inactive"}]}]}
